Compound in the assay: Nc1ncnc2c1ncn2[C@@H]1O[C@H](COP(=O)(O)OP(=O)(O)NP(=O)(O)O)[C@@H](O)[C@H]1O [adenylyl imidodiphosphate]
Briefly: NP40-soluble protein abundance relative to vehicle (solubility fold change) (ratio); higher = more soluble protein in presence of AMP-PNP. The method, boiled down:
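Values are fold changes against the detergent-processed vehicle, based on vsn-normalised intensities. Jurkat crude lysate was treated at eight concentrations from 0.1 to 10 mM (10 min at room temperature, then 3 min at 37 °C), solubilised with 0.8% NP40 and benzonase, ultracentrifuged and analysed by TMT-labelled LC-MS/MS over three independent experiments.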

Protein sequences, listed by entry. Tags and fused reporters are not part of them. Lines headed by an entry give the natural chain unless they say otherwise; changes in a name come on top.
UniProt Q9NPD3, whole entry: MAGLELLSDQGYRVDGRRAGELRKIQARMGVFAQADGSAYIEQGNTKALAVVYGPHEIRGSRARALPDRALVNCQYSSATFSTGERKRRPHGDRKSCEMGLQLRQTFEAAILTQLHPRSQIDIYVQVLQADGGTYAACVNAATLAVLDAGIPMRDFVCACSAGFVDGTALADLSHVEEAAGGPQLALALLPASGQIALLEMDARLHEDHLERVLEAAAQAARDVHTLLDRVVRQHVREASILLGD
UniProt Q9H467: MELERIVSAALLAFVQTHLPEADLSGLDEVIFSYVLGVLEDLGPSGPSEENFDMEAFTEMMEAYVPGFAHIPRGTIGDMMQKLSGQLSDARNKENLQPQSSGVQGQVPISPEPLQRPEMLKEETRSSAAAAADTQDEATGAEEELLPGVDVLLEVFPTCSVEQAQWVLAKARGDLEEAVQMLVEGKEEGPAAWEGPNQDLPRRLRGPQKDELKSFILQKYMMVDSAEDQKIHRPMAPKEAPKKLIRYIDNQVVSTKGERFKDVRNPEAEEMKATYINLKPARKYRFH
UniProt Q9NP87, whole entry: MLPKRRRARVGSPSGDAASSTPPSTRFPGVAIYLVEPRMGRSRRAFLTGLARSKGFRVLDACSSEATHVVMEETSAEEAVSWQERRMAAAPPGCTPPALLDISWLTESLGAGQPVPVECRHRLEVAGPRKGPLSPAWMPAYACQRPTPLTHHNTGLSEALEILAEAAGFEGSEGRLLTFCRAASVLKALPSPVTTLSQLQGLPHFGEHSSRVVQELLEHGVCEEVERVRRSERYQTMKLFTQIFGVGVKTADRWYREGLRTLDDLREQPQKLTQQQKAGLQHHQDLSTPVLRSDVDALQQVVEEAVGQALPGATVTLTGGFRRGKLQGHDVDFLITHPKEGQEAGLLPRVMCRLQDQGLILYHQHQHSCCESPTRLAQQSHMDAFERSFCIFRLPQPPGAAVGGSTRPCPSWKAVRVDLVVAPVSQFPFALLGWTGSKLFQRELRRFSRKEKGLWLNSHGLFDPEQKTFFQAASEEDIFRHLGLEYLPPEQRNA
UniProt Q9H082: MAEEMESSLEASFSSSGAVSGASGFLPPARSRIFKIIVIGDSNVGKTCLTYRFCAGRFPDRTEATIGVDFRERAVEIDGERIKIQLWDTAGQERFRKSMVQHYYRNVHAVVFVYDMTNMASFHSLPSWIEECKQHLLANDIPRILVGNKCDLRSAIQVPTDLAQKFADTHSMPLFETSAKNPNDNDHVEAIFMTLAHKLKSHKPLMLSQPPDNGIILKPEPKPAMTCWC
UniProt Q9BZF2: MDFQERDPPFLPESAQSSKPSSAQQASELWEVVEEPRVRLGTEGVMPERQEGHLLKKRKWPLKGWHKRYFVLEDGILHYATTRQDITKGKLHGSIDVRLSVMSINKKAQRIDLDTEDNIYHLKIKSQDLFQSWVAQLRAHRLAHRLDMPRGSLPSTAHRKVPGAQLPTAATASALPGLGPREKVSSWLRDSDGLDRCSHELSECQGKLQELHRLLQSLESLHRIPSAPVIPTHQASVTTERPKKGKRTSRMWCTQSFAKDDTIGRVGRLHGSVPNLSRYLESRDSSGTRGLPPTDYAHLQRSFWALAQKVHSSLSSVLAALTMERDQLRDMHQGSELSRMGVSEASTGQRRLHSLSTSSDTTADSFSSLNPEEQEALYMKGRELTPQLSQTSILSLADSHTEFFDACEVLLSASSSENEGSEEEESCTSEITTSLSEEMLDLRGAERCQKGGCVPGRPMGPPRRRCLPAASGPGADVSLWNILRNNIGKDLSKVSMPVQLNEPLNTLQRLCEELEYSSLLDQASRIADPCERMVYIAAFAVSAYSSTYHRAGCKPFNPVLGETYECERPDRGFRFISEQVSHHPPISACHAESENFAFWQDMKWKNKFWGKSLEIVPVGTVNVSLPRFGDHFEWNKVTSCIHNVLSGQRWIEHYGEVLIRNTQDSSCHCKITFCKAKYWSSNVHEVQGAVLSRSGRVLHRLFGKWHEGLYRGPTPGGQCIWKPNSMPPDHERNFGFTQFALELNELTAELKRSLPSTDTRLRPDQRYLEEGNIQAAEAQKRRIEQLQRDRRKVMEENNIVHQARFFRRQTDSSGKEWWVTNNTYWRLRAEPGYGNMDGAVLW
UniProt Q9NPI6: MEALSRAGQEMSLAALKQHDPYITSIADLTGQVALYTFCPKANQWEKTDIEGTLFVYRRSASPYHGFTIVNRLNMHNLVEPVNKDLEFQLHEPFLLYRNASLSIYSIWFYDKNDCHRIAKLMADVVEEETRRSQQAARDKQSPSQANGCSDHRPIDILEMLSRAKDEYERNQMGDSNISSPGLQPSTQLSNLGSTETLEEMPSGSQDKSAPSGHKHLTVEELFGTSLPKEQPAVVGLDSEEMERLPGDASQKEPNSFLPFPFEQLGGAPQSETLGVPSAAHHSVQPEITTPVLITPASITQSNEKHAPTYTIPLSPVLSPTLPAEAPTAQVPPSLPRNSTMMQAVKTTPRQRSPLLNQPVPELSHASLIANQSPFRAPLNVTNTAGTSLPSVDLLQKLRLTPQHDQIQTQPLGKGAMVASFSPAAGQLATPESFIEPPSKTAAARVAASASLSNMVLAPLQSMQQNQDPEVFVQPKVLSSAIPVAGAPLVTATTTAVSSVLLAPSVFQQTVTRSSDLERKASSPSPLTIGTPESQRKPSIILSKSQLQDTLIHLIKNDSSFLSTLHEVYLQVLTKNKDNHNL
UniProt Q9H1A4, whole entry: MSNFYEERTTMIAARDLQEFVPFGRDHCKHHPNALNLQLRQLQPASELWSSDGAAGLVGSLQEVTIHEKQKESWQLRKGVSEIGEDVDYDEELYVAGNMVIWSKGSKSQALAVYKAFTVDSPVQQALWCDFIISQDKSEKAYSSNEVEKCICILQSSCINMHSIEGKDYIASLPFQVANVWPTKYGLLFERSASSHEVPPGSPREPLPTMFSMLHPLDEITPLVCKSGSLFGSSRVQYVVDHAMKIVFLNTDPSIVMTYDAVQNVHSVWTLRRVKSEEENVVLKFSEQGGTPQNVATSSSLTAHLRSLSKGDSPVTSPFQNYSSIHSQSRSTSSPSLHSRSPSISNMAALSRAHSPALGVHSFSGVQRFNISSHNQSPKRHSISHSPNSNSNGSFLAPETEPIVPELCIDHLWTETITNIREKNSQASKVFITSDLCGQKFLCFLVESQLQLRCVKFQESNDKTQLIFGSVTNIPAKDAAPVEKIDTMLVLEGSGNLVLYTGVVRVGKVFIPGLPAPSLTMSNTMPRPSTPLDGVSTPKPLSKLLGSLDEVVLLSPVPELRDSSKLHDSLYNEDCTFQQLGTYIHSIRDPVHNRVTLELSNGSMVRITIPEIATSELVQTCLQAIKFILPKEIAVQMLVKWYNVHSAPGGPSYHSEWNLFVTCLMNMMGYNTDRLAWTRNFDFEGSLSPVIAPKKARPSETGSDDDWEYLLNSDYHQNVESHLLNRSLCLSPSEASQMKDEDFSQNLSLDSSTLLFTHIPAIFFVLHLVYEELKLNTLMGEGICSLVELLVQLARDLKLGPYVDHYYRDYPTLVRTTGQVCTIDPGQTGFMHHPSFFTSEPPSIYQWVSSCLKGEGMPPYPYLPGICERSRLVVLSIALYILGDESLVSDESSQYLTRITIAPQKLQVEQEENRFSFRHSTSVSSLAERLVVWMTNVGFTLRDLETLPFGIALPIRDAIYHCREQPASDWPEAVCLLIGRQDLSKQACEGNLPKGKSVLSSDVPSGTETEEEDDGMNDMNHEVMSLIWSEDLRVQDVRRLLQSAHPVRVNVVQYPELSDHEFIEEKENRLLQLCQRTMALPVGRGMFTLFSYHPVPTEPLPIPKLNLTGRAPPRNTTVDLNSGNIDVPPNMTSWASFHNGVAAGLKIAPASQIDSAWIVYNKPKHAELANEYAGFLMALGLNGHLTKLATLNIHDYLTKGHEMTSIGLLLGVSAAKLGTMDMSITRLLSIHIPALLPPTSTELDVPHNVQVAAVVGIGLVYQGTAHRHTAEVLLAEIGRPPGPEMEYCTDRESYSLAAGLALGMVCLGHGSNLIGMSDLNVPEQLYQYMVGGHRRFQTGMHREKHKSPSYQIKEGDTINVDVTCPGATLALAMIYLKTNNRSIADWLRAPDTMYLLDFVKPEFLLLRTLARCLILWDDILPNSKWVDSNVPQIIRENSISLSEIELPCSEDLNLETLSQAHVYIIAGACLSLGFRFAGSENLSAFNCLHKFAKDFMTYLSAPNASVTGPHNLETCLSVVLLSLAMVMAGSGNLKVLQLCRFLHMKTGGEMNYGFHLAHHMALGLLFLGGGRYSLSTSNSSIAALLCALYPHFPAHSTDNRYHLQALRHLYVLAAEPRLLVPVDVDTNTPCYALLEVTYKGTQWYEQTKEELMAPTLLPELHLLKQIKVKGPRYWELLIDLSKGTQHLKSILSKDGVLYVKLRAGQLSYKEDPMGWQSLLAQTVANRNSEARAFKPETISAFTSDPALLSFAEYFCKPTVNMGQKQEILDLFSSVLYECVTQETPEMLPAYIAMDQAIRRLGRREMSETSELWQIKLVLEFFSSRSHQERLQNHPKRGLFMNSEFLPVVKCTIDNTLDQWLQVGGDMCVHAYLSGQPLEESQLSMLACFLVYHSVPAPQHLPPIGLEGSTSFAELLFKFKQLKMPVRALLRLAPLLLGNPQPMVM
UniProt Q9H3U1: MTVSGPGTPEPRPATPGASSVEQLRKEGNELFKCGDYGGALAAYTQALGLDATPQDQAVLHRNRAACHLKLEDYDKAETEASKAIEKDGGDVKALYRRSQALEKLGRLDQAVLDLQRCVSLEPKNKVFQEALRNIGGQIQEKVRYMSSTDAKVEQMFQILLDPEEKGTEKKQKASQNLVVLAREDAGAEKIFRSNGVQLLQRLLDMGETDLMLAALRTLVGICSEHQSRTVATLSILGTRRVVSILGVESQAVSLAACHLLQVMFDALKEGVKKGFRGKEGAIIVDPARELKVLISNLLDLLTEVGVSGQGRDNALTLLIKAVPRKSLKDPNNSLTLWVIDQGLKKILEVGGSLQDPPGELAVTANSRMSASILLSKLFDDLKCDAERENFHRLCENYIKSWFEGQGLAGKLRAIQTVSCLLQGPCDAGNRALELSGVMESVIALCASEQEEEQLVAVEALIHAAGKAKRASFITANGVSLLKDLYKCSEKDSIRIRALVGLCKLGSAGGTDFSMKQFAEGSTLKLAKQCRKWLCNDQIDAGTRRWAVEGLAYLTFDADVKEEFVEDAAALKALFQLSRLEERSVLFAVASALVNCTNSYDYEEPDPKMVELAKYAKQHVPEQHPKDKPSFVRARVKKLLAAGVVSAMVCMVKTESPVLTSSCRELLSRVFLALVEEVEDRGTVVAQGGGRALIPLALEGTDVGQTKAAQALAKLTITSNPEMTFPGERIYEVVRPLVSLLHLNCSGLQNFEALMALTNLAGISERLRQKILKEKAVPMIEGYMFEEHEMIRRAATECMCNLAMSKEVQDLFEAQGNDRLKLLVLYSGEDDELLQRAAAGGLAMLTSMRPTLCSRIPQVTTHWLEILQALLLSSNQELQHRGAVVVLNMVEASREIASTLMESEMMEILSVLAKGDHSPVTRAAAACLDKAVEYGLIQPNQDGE
UniProt Q9HCI7: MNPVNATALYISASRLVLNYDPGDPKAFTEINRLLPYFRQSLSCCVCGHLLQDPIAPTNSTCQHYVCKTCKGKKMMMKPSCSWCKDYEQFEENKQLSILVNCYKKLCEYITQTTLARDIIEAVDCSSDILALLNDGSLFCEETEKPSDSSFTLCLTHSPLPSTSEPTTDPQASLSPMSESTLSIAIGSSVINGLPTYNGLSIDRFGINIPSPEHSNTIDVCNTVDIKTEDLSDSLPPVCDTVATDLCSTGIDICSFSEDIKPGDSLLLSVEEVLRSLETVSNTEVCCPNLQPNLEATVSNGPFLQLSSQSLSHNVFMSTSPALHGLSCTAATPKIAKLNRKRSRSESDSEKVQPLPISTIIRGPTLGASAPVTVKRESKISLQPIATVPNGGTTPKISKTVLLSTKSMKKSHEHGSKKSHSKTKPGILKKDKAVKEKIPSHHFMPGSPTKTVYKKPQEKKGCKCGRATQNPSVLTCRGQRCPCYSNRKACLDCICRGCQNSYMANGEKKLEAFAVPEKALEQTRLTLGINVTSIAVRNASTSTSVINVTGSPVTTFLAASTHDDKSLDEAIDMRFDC
UniProt Q9H0F6: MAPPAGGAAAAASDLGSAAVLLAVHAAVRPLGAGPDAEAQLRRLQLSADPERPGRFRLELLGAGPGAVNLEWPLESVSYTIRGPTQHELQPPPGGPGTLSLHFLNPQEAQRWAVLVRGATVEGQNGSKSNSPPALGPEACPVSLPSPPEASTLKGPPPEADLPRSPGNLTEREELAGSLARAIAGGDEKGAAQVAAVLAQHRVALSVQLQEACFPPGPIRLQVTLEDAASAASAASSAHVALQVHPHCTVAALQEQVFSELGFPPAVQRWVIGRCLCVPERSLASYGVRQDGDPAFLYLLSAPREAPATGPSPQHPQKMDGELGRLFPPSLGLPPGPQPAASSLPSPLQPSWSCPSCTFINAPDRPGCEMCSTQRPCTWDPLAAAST

± gives the standard deviation of the averaged measurements. The entries are a selection whose mix differs from that of the whole data set. Most entries show no effect beyond the scatter of the controls.

This note sets out measurements from the supplement of paper PMC6411743.

On to YTHDC2 (UniProt Q9H6S0), for which the NP40-soluble protein abundance reads like this: (concentration: 0.1mM) 1.05 ± 0.025; (concentration: 0.5mM) 1.03 ± 0.023.

Regarding TM6SF1 (UniProt Q9BZW5), the NP40-soluble protein abundance came to 1.008 ± 0.0042 (concentration: 0.1mM) and 0.964 ± 0.061 (concentration: 0.5mM).

Regarding EXOSC4 (UniProt Q9NPD3), the NP40-soluble protein abundance by setting is: (concentration: 0.1mM) 1.04 ± 0.028; (concentration: 0.5mM) 1.01 ± 0.074.

Consider TSPYL1 (UniProt Q9H0U9), for which the NP40-soluble protein abundance reads like this: (concentration: 0.1mM) 0.993 ± 0.016; (concentration: 0.5mM) 0.9849 ± 0.0075.

Consider UniProt Q9H9J4 and related entries, for which the NP40-soluble protein abundance turned out to be 1.01 ± 0.025 (concentration: 0.1mM) and 1.02 ± 0.017 (concentration: 0.5mM).

As to UniProt Q9H8V3 and related entries, the NP40-soluble protein abundance came out at 0.985 ± 0.023 (concentration: 0.1mM) and 0.999 ± 0.024 (concentration: 0.5mM).

Turning to MIS12 (UniProt Q9H081), the NP40-soluble protein abundance by setting is: (concentration: 0.1mM) 1.01 ± 0.062; (concentration: 0.5mM) 1.03 ± 0.063.

In the case of UniProt Q9GZT3 and related entries, the NP40-soluble protein abundance turned out to be 0.998 ± 0.047 (concentration: 0.1mM) and 1.03 ± 0.075 (concentration: 0.5mM).

As to UniProt Q9H903 and related entries, the NP40-soluble protein abundance reads like this: (concentration: 0.1mM) 0.983 ± 0.047; (concentration: 0.5mM) 1.01 ± 0.031.

In the case of UniProt Q9H8G2, the NP40-soluble protein abundance runs as follows: (concentration: 0.1mM) 0.963 ± 0.038; (concentration: 0.5mM) 1.01 ± 0.03.

For the target UniProt Q9H5V9 and related entries, the NP40-soluble protein abundance is, setting by setting: (concentration: 0.1mM) 0.98 ± 0.013; (concentration: 0.5mM) 1 ± 0.022.

As to CUEDC2 (UniProt Q9H467), the NP40-soluble protein abundance worked out at 0.977 ± 0.043 (concentration: 0.1mM) and 1.03 ± 0.075 (concentration: 0.5mM).

As to UniProt Q9H9B1 and related entries, the NP40-soluble protein abundance reads like this: (concentration: 0.1mM) 0.9757 ± 0.0095; (concentration: 0.5mM) 1 ± 0.022.

On to CACYBP (UniProt Q9HB71), for which the NP40-soluble protein abundance by setting is: (concentration: 0.1mM) 0.984 ± 0.012; (concentration: 0.5mM) 1.04 ± 0.057.

Regarding UniProt Q9NPG3 and related entries, the NP40-soluble protein abundance (concentration: 0.1mM) is 1.01 ± 0.025 and the NP40-soluble protein abundance (concentration: 0.5mM) stood at 1.01 ± 0.023.

Regarding TAF9B (UniProt Q9HBM6), the NP40-soluble protein abundance (concentration: 0.1mM) turned out to be 0.995 ± 0.024 and the NP40-soluble protein abundance (concentration: 0.5mM) stood at 0.982 ± 0.024.

PREB (UniProt Q9HCU5): the NP40-soluble protein abundance is, setting by setting: (concentration: 0.1mM) 1.01 ± 0.015; (concentration: 0.5mM) 1 ± 0.018.

As for UniProt Q9NP87, the NP40-soluble protein abundance by setting is: (concentration: 0.1mM) 1.01 ± 0.032; (concentration: 0.5mM) 1.05 ± 0.046.

Take UniProt Q9C0B5 and related entries: the NP40-soluble protein abundance is 1.01 ± 0.03 (concentration: 0.1mM) and 1.02 ± 0.017 (concentration: 0.5mM).

Consider RAB33B (UniProt Q9H082), for which the NP40-soluble protein abundance reads like this: (concentration: 0.1mM) 1.02 ± 0.044; (concentration: 0.5mM) 1.04 ± 0.033.

For the target MYH16 (UniProt Q9H6N6), the NP40-soluble protein abundance was found to be 0.969 ± 0.026 (concentration: 0.1mM) and 0.98601 ± 0.00012 (concentration: 0.5mM).

Turning to ZHX3 (UniProt Q9H4I2), the NP40-soluble protein abundance by setting is: (concentration: 0.1mM) 1.01 ± 0.041; (concentration: 0.5mM) 1.02 ± 0.061.

In the case of UniProt Q9BZF2, the NP40-soluble protein abundance is 0.9981 ± 0.0092 (concentration: 0.1mM) and 1 ± 0.012 (concentration: 0.5mM).

As to DCP1A (UniProt Q9NPI6), the NP40-soluble protein abundance worked out at 0.997 ± 0.044 (concentration: 0.1mM) and 0.993 ± 0.034 (concentration: 0.5mM).

Consider UniProt Q9NP92 and related entries, for which the NP40-soluble protein abundance runs as follows: (concentration: 0.1mM) 1.07 ± 0.064; (concentration: 0.5mM) 1.06 ± 0.052.

For the target GLIPR2 (UniProt Q9H4G4), the NP40-soluble protein abundance came to 1.01 ± 0.057 (concentration: 0.1mM) and 1 ± 0.038 (concentration: 0.5mM).

In the case of ANAPC1 (UniProt Q9H1A4), the NP40-soluble protein abundance runs as follows: (concentration: 0.1mM) 1.01 ± 0.043; (concentration: 0.5mM) 0.951 ± 0.1.

As to OSGEP (UniProt Q9NPF4), the NP40-soluble protein abundance is, setting by setting: (concentration: 0.1mM) 0.992 ± 0.016; (concentration: 0.5mM) 0.98 ± 0.039.

In the case of UniProt Q9HC36, the NP40-soluble protein abundance (concentration: 0.1mM) amounted to 1.02 ± 0.033 and the NP40-soluble protein abundance (concentration: 0.5mM) amounted to 1.03 ± 0.023.

For UniProt Q9H3U1 and related entries, the NP40-soluble protein abundance runs as follows: (concentration: 0.1mM) 0.996 ± 0.015; (concentration: 0.5mM) 0.9642 ± 0.0067.

On to ZWILCH (UniProt Q9H900), for which the NP40-soluble protein abundance reads like this: (concentration: 0.1mM) 1.01 ± 0.059; (concentration: 0.5mM) 0.996 ± 0.036.

Regarding MSL2 (UniProt Q9HCI7), the NP40-soluble protein abundance came out at 1.03 ± 0.042 (concentration: 0.1mM) and 1.01 ± 0.074 (concentration: 0.5mM).

In the case of UniProt Q9C0E8 and related entries, the NP40-soluble protein abundance runs as follows: (concentration: 0.1mM) 0.986 ± 0.047; (concentration: 0.5mM) 1.02 ± 0.067.

As for XRN2 (UniProt Q9H0D6), the NP40-soluble protein abundance is, setting by setting: (concentration: 0.1mM) 0.982 ± 0.036; (concentration: 0.5mM) 0.999 ± 0.032.

Regarding PLEKHA1 (UniProt Q9HB21), the NP40-soluble protein abundance is, setting by setting: (concentration: 0.1mM) 0.985 ± 0.036; (concentration: 0.5mM) 0.991 ± 0.022.

For the target UniProt Q9HBK9 and related entries, the NP40-soluble protein abundance is, setting by setting: (concentration: 0.1mM) 0.989 ± 0.021; (concentration: 0.5mM) 0.985 ± 0.081.

UniProt Q9BZL4-4|Q9BZL4: the NP40-soluble protein abundance is 1.03 ± 0.014 (concentration: 0.1mM) and 0.994 ± 0.021 (concentration: 0.5mM).

UniProt Q9H0F6 and related entries: the NP40-soluble protein abundance (concentration: 0.1mM) was found to be 1.04 ± 0.058 and the NP40-soluble protein abundance (concentration: 0.5mM) came out at 1.03 ± 0.015.

Regarding LSG1 (UniProt Q9H089), the NP40-soluble protein abundance reads like this: (concentration: 0.1mM) 0.983 ± 0.021; (concentration: 0.5mM) 0.945 ± 0.043.

On to ACTR8 (UniProt Q9H981), for which the NP40-soluble protein abundance reads like this: (concentration: 0.1mM) 0.986 ± 0.013; (concentration: 0.5mM) 1.01 ± 0.045.

Turning to CHMP1A (UniProt Q9HD42), the NP40-soluble protein abundance came to 1.01 ± 0.034 (concentration: 0.1mM) and 1.01 ± 0.067 (concentration: 0.5mM).

As for VPS37B (UniProt Q9H9H4), the NP40-soluble protein abundance reads like this: (concentration: 0.1mM) 1.01 ± 0.029; (concentration: 0.5mM) 1.02 ± 0.059.

For UniProt Q9HBM0 and related entries, the NP40-soluble protein abundance came to 1.02 ± 0.018 (concentration: 0.1mM) and 0.9943 ± 0.008 (concentration: 0.5mM).

With UCK2 (UniProt Q9BZX2), the NP40-soluble protein abundance reads like this: (concentration: 0.1mM) 1.06 ± 0.056; (concentration: 0.5mM) 1.02 ± 0.026.

For TAOK3 (UniProt Q9H2K8), the NP40-soluble protein abundance was 1.01 ± 0.022 (concentration: 0.1mM) and 1.04 ± 0.03 (concentration: 0.5mM).

For the target ESF1 (UniProt Q9H501), the NP40-soluble protein abundance runs as follows: (concentration: 0.1mM) 1.015 ± 0.002; (concentration: 0.5mM) 1.04 ± 0.052.

For the target ACTR5 (UniProt Q9H9F9), the NP40-soluble protein abundance amounted to 1.01 ± 0.059 (concentration: 0.1mM) and 1.04 ± 0.068 (concentration: 0.5mM).

With UniProt Q9BZL1, the NP40-soluble protein abundance stood at 1.01 ± 0.049 (concentration: 0.1mM) and 0.996 ± 0.021 (concentration: 0.5mM).
